In publication PMC3166162, “A Dual Binding Mode for RhoGTPases in Plexin Signalling” (PLoS Biology, 2011):
No constants are given. Whether binding was seen depends on the method and setting.

By UniProt entry, the sequences of proteins in these tests, tags left out. Where a name states a change or a piece, a line headed by the entry shows the natural chain unless it says otherwise. Chains listed by the source or under a name are the forms on record and can include a tag or linker.
Plexin-B1Δ2 Leu1815Glu (O43157, form named): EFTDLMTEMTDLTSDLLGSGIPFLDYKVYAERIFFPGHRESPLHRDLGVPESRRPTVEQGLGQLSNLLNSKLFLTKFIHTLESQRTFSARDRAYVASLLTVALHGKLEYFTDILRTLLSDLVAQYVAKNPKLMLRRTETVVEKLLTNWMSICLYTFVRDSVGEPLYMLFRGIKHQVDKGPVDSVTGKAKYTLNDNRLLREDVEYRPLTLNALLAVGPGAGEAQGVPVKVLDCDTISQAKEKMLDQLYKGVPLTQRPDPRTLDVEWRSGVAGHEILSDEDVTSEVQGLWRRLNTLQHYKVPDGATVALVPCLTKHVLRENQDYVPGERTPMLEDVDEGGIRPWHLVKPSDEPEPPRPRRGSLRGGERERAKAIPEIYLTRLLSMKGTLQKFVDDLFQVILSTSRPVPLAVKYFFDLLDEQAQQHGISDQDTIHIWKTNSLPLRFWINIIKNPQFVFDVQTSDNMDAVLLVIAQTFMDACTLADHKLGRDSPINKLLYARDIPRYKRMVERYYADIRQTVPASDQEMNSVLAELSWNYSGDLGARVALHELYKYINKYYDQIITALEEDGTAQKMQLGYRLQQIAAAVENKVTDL
Plexin-B1_(cyto) Leu1815Glu (O43157, form named): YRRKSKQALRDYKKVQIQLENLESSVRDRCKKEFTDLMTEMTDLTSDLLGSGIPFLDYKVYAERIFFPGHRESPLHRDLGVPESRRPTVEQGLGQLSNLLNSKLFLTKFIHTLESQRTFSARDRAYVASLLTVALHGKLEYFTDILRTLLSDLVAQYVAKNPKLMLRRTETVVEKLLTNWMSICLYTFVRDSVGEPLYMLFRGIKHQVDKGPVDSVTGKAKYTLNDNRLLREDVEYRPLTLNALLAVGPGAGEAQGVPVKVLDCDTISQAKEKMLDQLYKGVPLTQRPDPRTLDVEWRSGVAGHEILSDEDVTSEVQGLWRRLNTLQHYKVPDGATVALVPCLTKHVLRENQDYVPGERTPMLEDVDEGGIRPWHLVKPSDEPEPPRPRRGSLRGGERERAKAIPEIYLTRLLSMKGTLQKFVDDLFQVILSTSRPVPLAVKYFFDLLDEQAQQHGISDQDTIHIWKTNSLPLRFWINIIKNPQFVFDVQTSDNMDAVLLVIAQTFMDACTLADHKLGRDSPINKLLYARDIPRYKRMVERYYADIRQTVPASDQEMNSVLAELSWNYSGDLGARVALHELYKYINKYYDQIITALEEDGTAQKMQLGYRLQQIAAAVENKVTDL
Plexin-B1_(cyto) Leu1815Pro (O43157, form named): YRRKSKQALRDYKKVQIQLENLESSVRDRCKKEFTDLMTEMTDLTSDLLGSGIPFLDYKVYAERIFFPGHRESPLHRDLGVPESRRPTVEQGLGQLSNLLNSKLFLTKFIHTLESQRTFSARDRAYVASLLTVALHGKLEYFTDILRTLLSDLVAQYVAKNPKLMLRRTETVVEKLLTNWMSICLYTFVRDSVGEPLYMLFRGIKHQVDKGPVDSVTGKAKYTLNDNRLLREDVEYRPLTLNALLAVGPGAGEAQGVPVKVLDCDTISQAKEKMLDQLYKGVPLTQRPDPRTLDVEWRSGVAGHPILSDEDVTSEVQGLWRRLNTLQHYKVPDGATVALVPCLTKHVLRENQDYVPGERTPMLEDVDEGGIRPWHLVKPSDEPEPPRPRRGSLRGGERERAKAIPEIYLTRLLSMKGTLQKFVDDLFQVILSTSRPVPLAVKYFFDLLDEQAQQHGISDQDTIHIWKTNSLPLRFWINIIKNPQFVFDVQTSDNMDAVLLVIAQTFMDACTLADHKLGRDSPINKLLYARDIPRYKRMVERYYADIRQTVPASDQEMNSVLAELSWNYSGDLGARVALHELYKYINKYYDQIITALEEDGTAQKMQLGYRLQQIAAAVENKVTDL
Plexin-B1_(cyto) Trp1807Glu (O43157, form named): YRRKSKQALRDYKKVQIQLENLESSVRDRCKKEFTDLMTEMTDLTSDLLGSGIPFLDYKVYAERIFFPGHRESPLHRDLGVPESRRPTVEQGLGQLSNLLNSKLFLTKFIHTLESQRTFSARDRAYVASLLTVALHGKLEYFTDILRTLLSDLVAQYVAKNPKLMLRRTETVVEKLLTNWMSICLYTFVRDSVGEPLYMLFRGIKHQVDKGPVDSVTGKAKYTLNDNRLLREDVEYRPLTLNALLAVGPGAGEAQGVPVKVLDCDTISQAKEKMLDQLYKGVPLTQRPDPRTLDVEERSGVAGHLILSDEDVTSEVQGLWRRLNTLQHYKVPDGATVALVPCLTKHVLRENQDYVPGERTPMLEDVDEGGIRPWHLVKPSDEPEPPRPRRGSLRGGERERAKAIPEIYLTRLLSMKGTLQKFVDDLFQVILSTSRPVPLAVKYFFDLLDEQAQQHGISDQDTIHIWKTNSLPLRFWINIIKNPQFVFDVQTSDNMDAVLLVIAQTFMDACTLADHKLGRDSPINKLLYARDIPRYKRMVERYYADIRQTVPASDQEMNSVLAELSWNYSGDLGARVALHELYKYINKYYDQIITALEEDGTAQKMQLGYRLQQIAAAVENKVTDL

Columns and labels:
[1] = target: Plexin-B1Δ2 Leu1815Glu (human) (UniProt O43157); assay: condition: only at low coupling density (500 RU loaded on the chip); SPR; as a1, low coupling density: 500 RU of the plexin construct loaded on the chip; RhoGTPase 120 nM to 2,000 µM; both purified
[2] = target: Plexin-B1_(cyto) Leu1815Glu (human) (UniProt O43157); assay: SPR; Biacore T100, 25°C, standard buffer with 0.05% (v/v) Tween 20; biotinylated plexin constructs on streptavidin surfaces (500-5,000 RU); RhoGTPase injected, 120 nM to 500 µM; equilibrium responses fitted to a 1:1 Langmuir model; both purified
[3] = target: Plexin-B1_(cyto) Leu1815Pro (human) (UniProt O43157); assay: as above
[4] = target: Plexin-B1_(cyto) Trp1807Glu (human) (UniProt O43157); assay: as above

binding [1]: no binding
B1: Rnd1 (residues 5-200) (enzyme, human, UniProt Q92730 5-200, looked up)
chain: RAPQPVVARCKLVLVGDVQCGKTAMLQVLAKDCYPETYVPTVFENYTACLETEEQRVELSLWDTSGSPYYDNVRPLCYSDSDAVLLCFDISRPETVDSALKKWRTEILDYCPSTRVLLIGCKTDLRTDLSTLMELSHQKQAPISYEQGCAIAKQLGAEIYLEGSAFTSEKSIHSIFRTASMLCLNKPSPLPQKSPV
notes: human Rnd1, residues 5-200; source: E. coli BL21 Star, purified
binding [2]: no binding (tested: up to 500 µM RhoGTPase)
binding [3]: no binding (tested: up to 500 µM RhoGTPase)
binding [4]: no binding (tested: up to 500 µM RhoGTPase)
